Measurements as given in publication doi:10.1101/2024.11.22.622898.
Results are given in words; binding and its absence hold for the method and conditions named. In cells and extracts the contact can be indirect. Some binding calls cover weakened binding; strength is not graded here. Tags and fused reporters may be left off the sequences shown.

Target: T1, GFP-TBC1D1 (human) (UniProt Q86TI0)
T1 sequence: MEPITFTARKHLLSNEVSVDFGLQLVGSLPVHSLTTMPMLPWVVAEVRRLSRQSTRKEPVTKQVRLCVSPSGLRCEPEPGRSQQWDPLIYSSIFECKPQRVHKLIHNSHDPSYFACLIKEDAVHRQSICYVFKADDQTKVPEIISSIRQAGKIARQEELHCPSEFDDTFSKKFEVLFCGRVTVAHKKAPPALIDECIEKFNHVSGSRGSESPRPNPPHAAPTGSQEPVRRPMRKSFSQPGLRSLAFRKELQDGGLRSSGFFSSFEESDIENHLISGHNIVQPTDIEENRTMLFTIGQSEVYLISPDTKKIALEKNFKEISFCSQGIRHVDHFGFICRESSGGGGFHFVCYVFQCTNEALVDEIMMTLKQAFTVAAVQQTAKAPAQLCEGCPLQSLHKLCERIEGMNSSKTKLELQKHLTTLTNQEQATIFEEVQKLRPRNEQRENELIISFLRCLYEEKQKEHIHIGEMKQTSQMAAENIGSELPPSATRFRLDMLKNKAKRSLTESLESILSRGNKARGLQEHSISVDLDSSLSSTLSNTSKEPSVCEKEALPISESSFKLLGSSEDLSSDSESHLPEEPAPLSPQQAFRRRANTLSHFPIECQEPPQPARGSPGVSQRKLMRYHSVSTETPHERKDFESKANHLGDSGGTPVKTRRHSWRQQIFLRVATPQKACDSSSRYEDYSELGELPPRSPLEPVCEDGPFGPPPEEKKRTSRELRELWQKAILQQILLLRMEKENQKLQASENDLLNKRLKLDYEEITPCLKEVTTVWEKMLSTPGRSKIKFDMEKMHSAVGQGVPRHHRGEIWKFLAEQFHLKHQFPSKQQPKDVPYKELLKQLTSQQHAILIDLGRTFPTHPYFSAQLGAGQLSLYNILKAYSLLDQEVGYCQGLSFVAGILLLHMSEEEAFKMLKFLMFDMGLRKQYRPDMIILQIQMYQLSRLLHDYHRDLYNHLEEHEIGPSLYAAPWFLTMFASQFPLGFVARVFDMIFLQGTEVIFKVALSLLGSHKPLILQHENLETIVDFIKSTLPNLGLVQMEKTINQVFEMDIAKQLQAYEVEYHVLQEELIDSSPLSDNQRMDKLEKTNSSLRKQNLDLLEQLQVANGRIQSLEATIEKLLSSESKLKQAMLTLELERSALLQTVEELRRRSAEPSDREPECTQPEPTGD
Test: co-IP

B1: mCherry-TBC1D4 (protein, UniProt O60343 1-1298)
chain: MEPPSCIQDEPFPHPLEPEPGVSAQPGPGKPSDKRFRLWYVGGSCLDHRTTLPMLPWLMAEIRRRSQKPEAGGCGAPAAREVILVLSAPFLRCVPAPGAGASGGTSPSATQPNPAVFIFEHKAQHISRFIHNSHDLTYFAYLIKAQPDDPESQMACHVFRATDPSQVPDVISSIRQLSKAAMKEDAKPSKDNEDAFYNSQKFEVLYCGKVTVTHKKAPSSLIDDCMEKFSLHEQQRLKIQGEQRGPDPGEDLADLEVVVPGSPGDCLPEEADGTDTHLGLPAGASQPALTSSRVCFPERILEDSGFDEQQEFRSRCSSVTGVQRRVHEGSQKSQPRRRHASAPSHVQPSDSEKNRTMLFQVGRFEINLISPDTKSVVLEKNFKDISSCSQGIKHVDHFGFICRESPEPGLSQYICYVFQCASESLVDEVMLTLKQAFSTAAALQSAKTQIKLCEACPMHSLHKLCERIEGLYPPRAKLVIQRHLSSLTDNEQADIFERVQKMKPVSDQEENELVILHLRQLCEAKQKTHVHIGEGPSTISNSTIPENATSSGRFKLDILKNKAKRSLTSSLENIFSRGANRMRGRLGSVDSFERSNSLASEKDYSPGDSPPGTPPASPPSSAWQTFPEEDSDSPQFRRRAHTFSHPPSSTKRKLNLQDGRAQGVRSPLLRQSSSEQCSNLSSVRRMYKESNSSSSLPSLHTSFSAPSFTAPSFLKSFYQNSGRLSPQYENEIRQDTASESSDGEGRKRTSSTCSNESLSVGGTSVTPRRISWRQRIFLRVASPMNKSPSAMQQQDGLDRNELLPLSPLSPTMEEEPLVVFLSGEDDPEKIEERKKSKELRSLWRKAIHQQILLLRMEKENQKLEASRDELQSRKVKLDYEEVGACQKEVLITWDKKLLNCRAKIRCDMEDIHTLLKEGVPKSRRGEIWQFLALQYRLRHRLPNKQQPPDISYKELLKQLTAQQHAILVDLGRTFPTHPYFSVQLGPGQLSLFNLLKAYSLLDKEVGYCQGISFVAGVLLLHMSEEQAFEMLKFLMYDLGFRKQYRPDMMSLQIQMYQLSRLLHDYHRDLYNHLEENEISPSLYAAPWFLTLFASQFSLGFVARVFDIIFLQGTEVIFKVALSLLSSQETLIMECESFENIVEFLKNTLPDMNTSEMEKIITQVFEMDISKQLHAYEVEYHVLQDELQESSYSCEDSETLEKLERANSQLKRQNMDLLEKLQVAHTKIQALESNLENLLTRETKMKSLIRTLEQEKMAYQKTVEQLRKLLPADALVNCDLLLRDLNCNPNNKAKIGNKP
In the case of B1, the binding is reported as “binds”.
